Laboratory results reported in PubChem BioAssay AID504467 (National Center for Advancing Translational Sciences (NCATS), 2011).
In all, about 330,000 compounds went through this assay and about 7,700 (2.3%) were called active. The shares of active, inactive and inconclusive entries below differ from those in the screen. Calls follow the shape of the dose curve; as a rule, active = well fitted inhibition curve with a large enough effect; inconclusive = small, poorly fitted or top-dose-only effect, or effect the other way; inactive = flat fitted curve, though single readings scatter. Potencies beside an inconclusive call are fits to weak or partial responses and may not hold up.

Assay: qHTS screen for small molecules that inhibit ELG1-dependent DNA repair in human embryonic kidney (HEK293T) cells expressing luciferase-tagged ELG1; also: nearly all actives have a fitted effect of over 55% in size
Conditions: HEK293T ELG1-luciferase reporter, luminescence, 16 h, DNA damage induced by 5-fluorouridine; activity change, negative = inhibition: at 46.1 µM (top of the series)
Method in brief: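 HEK293T cells expressing luciferase-tagged ELG1 (2,000/well) received 5-Fluorouridine plus compound or DMSO for 16 hr at 37 °C. Luciferase was read by ONE-Glo luminescence after 30 min at room temperature.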
% is scaled to controls: 0 for no effect and ±100 for the full control effect; potency is read from the fitted curve at half-maximal effect.

Question: For `Cc1cccc(N2C(=O)SC(SC(=Nc3ccccc3)Nc3ccccc3)C2=O)c1` (configuration not stated), which Potency is on record?
Answer: Its Potency is inconclusive: 20.6 µM [activator, single point].

Question: With `O=C(Nc1ccc2c(c1)OCCO2)C1CCN(C(=O)c2ccc(Cl)cc2)CC1` as the compound, how does the Potency read?
Answer: The Potency was inconclusive: 10.3 µM [activator, partial curve, poor fit].

Question: Which Potency does the source give for `COc1ccccc1NC(=O)c1cn(C)c(=O)c2cc(OC)c(OC)cc12` here?
Answer: The Potency was inconclusive: 14.6 µM [inhibitor, partial curve].

Question: Which “activity change, negative = inhibition” value does the source give for `CCOP(=O)(OCC)c1nc(-c2ccccc2Cl)oc1N1CCOCC1` here?
Answer: The value was inactive: -1.72%.

Question: With `Nc1ccccc1C#CCCCCO` as the compound, how does the Potency read?
Answer: The Potency was inconclusive: 20.6 µM [activator, single point].

Question: For `COC(=O)N/N=C/c1cc(C)n(-c2ccccc2)c1C`, which Potency is on record?
Answer: Its Potency is inconclusive: 20.6 µM [activator, partial curve].

Question: Which Potency does the source give for `CCCC(=O)Oc1cccc(C2NC(=O)c3ccccc3O2)c1` (configuration not stated) here?
Answer: Its Potency is inconclusive: 11.2 µM [inhibitor, partial curve, poor fit].

Question: For `Cc1nc(SCc2ccc(C(=O)O)cc2)nc2c1CCCC2`, which Potency is on record?
Answer: The Potency was inconclusive: 32.6 µM [inhibitor, single point].

Question: For `CC(CC(=O)N1CCN(c2ccccc2)CC1)S(=O)(=O)c1ccc2c(c1)NC(=O)CS2` (configuration not stated), which Potency is on record?
Answer: Its Potency is inconclusive: 25.9 µM [inhibitor, partial curve, poor fit].

Question: For `CNC(=S)N(CCc1c(C)[nH]c2ccc(C)cc12)Cc1cc(OC)c(OC)c(OC)c1`, which Potency is on record?
Answer: The Potency was inconclusive: 18.4 µM [inhibitor, single point].

Question: For `COc1cc(/C=C(\C#N)c2ccccn2)ccc1OCc1ccccc1`, which Potency is on record?
Answer: The Potency was inconclusive: 29.1 µM [inhibitor, partial curve, poor fit].

Question: With `COc1ccccc1NS(=O)(=O)c1ccc(C(=O)N2CCN(c3ccccc3O)CC2)cc1` as the compound, how does the Potency read?
Answer: The Potency was inconclusive: 29.1 µM [inhibitor, single point].

Question: With `CCOC(=O)c1c(NC(=O)Cn2cc([N+](=O)[O-])cn2)sc2c1CCC2` as the compound, how does the Potency read?
Answer: Its Potency is active: 1.84 µM.

Question: Which Potency does the source give for `O=C(c1ccc2c(c1)N(Cc1ccc(F)cc1)C(=O)CS2)N1CCOCC1` here?
Answer: The Potency was inconclusive: 32.6 µM [activator, single point].

Question: Which “activity change, negative = inhibition” value does the source give for `CC[C@]12c3[nH]c4ccc(OC)cc4c3CCN1C(=O)C(CC(=O)NCCCN(C)C)C[C@@H]2C(=O)N1CCN(C(=O)c2ccco2)CC1` (some centres not stated) here?
Answer: Its value is inactive: 27%.

Question: Which “activity change, negative = inhibition” value does the source give for `COc1ccc(C2CC3(CC(C)(C)NC(=O)N3)Oc3cc(O)ccc32)cc1` (configuration not stated) here?
Answer: The value was inactive: -13.5%.

Question: With `CC(=O)c1ccc(NC(=O)N2CCN(c3cccc(Cl)c3)CC2)cc1` as the compound, how does the Potency read?
Answer: Its Potency is inconclusive: 7.31 µM [inhibitor, partial curve].

Question: For `C[C@H](NC(=O)c1ccccc1Cl)C(=O)OCC(=O)NNC(=O)c1cccs1`, which “activity change, negative = inhibition” value is on record?
Answer: The value was inactive: 17.4%.

Question: For `Cc1ccccc1CN1CCN(C(C)C(=O)NCc2ccccc2)CC1` (configuration not stated), which “activity change, negative = inhibition” value is on record?
Answer: Its value is inactive: -13.3%.

Question: For `CCOc1cc(/C=N/NC(=O)c2cccnc2)ccc1OCC(=O)N(C)C`, which “activity change, negative = inhibition” value is on record?
Answer: The value was inactive: -8.11%.

Question: With `COc1cnc(-c2ccccn2)nc1Oc1ccc(Cl)c2ccccc12` as the compound, how does the Potency read?
Answer: The Potency was inconclusive: 29.1 µM [inhibitor, single point].

Question: For `CCOCCCNc1c(CC)c(C)c(C#N)c2nc3ccccc3n12`, which Potency is on record?
Answer: The Potency was inconclusive: 29.1 µM [inhibitor, single point].

Question: For `COc1ccc(C(=S)Nc2ccccc2)cc1`, which Potency is on record?
Answer: Its Potency is inconclusive: 20.6 µM [activator, single point].

Question: With `Cc1cccnc1NC(=O)CN1C(=O)NC(C)(c2ccc3ccccc3c2)C1=O` (configuration not stated) as the compound, how does the Potency read?
Answer: Its Potency is inconclusive: 4.61 µM [activator, single point].

Question: For `CCc1c(C)nc2c(-c3ccccc3)c(-c3ccccc3)[nH]n2c1=O`, which “activity change, negative = inhibition” value is on record?
Answer: Its value is inactive: -13.1%.

Question: For `CCOC(=O)c1nn(-c2ccc(OCC)cc2)c(C)c1C(C)=O`, which Potency is on record?
Answer: Its Potency is inconclusive: 1.46 µM [inhibitor, partial curve].

Question: Which Potency does the source give for `Cc1ccc(NC(=O)CSc2nccn2Cc2ccccc2)cc1C` here?
Answer: The Potency was inconclusive: 16.4 µM [activator, partial curve].

Question: With `O=C1C2C3C=CC(CC3)C2C(=O)N1/N=C/c1ccc(O)cc1` (configuration not stated) as the compound, how does the Potency read?
Answer: The Potency was inconclusive: 16.4 µM [activator, partial curve].

Question: Which Potency does the source give for `CCOc1ccc(-n2ccnc2SCC(=O)Nc2cc(C)on2)cc1` here?
Answer: The Potency was inconclusive: 23.1 µM [inhibitor, single point].

Question: With `COc1ccc(/C=C2\SC(=O)N(CCNC(=O)Cc3coc4cc(C)ccc34)C2=O)cc1OC` as the compound, how does the Potency read?
Answer: The Potency was inconclusive: 29.1 µM [inhibitor, single point].

Question: With `O=C(N/N=C/c1ccncc1)c1cccs1` as the compound, how does the Potency read?
Answer: The Potency was inconclusive: 18.3 µM [activator, partial curve].

Question: With `COC(=O)c1ccc(OCCOc2ccc(C(=O)OC)cc2)cc1` as the compound, how does the “activity change, negative = inhibition” value read?
Answer: Its value is inactive: -2.08%.

Question: For `COc1ccc(NC(=O)c2cc([N+](=O)[O-])ccc2O)cc1`, which Potency is on record?
Answer: Its Potency is inconclusive: 0.082 µM [activator, full curve, poor fit].

Question: Which Potency does the source give for `Fc1cc(F)c2nc(Nc3nc4c(F)cccc4s3)sc2c1` here?
Answer: Its Potency is inconclusive: 18.4 µM [activator, single point].

Question: Which Potency does the source give for `CN1CCc2c(C#N)c(N3CCCCC3)nc(NCc3ccccc3)c2C1` here?
Answer: Its Potency is inconclusive: 29.1 µM [inhibitor, single point].

Question: Which Potency does the source give for `Fc1ccc(C2C3=C(Nc4ncnn42)c2ccccc2OC3c2ccncc2)cc1` (configuration not stated) here?
Answer: The Potency was inconclusive: 18.4 µM [inhibitor, partial curve].

Question: Which Potency does the source give for `COc1ccccc1NC(=O)CSc1nnc(C2CCCCC2)n1N` here?
Answer: The Potency was inconclusive: 29.1 µM [activator, partial curve, poor fit].

Question: Which activity change, negative = inhibition does the source give for `CC(Oc1ccc(Br)cc1Br)C(=O)Nc1cccnc1` (configuration not stated) here?
Answer: Its activity change, negative = inhibition is inconclusive: 26.2% [activator].

Question: With `COc1ccccc1NC=C1C(=O)OC(C)(C)OC1=O` as the compound, how does the Potency read?
Answer: The Potency was inconclusive: 17.8 µM [activator, partial curve, poor fit].

Question: For `O=C(COc1ncnc2sccc12)Nc1cccc(S(=O)(=O)N2CCOCC2)c1`, which Potency is on record?
Answer: Its Potency is inconclusive: 8.2 µM [inhibitor, partial curve].

Question: With `O=C(C1CCCN(S(=O)(=O)c2ccccc2[N+](=O)[O-])C1)N1CCCC1` (configuration not stated) as the compound, how does the “activity change, negative = inhibition” value read?
Answer: The value was inactive: -0.686%.

Question: Which Potency does the source give for `O=C(O)c1cc2ccc3ccccc3c2oc1=O` here?
Answer: The Potency was inconclusive: 29.1 µM [activator, single point].

Question: With `OCCN(CCO)c1nc2ccccc2[nH]1` as the compound, how does the Potency read?
Answer: The Potency was inconclusive: 0.13 µM [inhibitor, single point].

Question: Which Potency does the source give for `CCOC(=O)/C(=C/C=C1\Sc2cc(C)c(C)cc2N1CC)C(C)=O` here?
Answer: Its Potency is inconclusive: 20.6 µM [inhibitor, partial curve].

Question: For `Cc1cc(C)n(CCCNC(=O)c2ccc(S(=O)(=O)NCc3ccco3)cc2)n1`, which Potency is on record?
Answer: The Potency was inconclusive: 6.51 µM [inhibitor, single point].

Question: With `O=C(Nc1ccc(Cl)cc1)C1CCCCN1S(=O)(=O)c1ccccc1` (configuration not stated) as the compound, how does the “activity change, negative = inhibition” value read?
Answer: The value was inactive: 0%.

Question: With `COc1cccc(NC(=O)/C=C/c2ccccc2[N+](=O)[O-])c1` as the compound, how does the Potency read?
Answer: The Potency was inconclusive: 5.17 µM [activator, partial curve].

Question: Which Potency does the source give for `CCC(=O)N1CCc2cc(S(=O)(=O)N(C)c3ccc(OC)cc3OC)ccc21` here?
Answer: The Potency was inconclusive: 23.1 µM [inhibitor, partial curve].

Question: For `Cc1cccc(NC(=O)c2nc[nH]c2C(=O)N2CCc3ccccc3C2)c1`, which Potency is on record?
Answer: The Potency was inconclusive: 23.1 µM [inhibitor, single point].

Question: Which Potency does the source give for `Cc1ccc(-n2ncc3c(SCc4ccccc4)ncnc32)cc1` here?
Answer: The Potency was inconclusive: 5.8 µM [activator, partial curve].

Question: For `O=C(Nc1ccc2[nH]ccc2c1)c1ccccc1`, which Potency is on record?
Answer: The Potency was inconclusive: 2.06 µM [activator, full curve].

Question: For `Cc1ccc(S(=O)(=O)N(C)Cc2ccc(C(=O)NN=C3C4CC5CC(C4)CC3C5)cc2)cc1`, which “activity change, negative = inhibition” value is on record?
Answer: The value was inactive: -2.77%.

Question: For `O=C(COC(=O)c1ccccc1OC(F)F)Nc1ccc(N2CCCCC2)cc1`, which Potency is on record?
Answer: Its Potency is inconclusive: 20.6 µM [activator, partial curve].

Question: For `Cc1ccc(-c2c[n+](CC(=O)c3cccs3)c3n2CCC3)cc1`, which Potency is on record?
Answer: The Potency was inconclusive: 23.1 µM [inhibitor, partial curve, poor fit].

Question: Which Potency does the source give for `CN(C)S(=O)(=O)N1CCCC(C(=O)c2ccc(C(F)(F)F)cc2)C1` (configuration not stated) here?
Answer: Its Potency is inconclusive: 29.1 µM [inhibitor, single point].

Question: With `Cc1ccc(NC(=O)C(=O)c2c[nH]c3ccccc23)cc1` as the compound, how does the Potency read?
Answer: Its Potency is inconclusive: 1.3 µM [activator, full curve].

Question: Which “activity change, negative = inhibition” value does the source give for `Cc1cc(C)cc(N(C(=O)Cc2cccs2)C(C(=O)NC2CCCC2)c2ccc(C)o2)c1` (configuration not stated) here?
Answer: Its value is inactive: 17.4%.

Question: For `CCOc1ccc(S(=O)(=O)N2CCCC(C(=O)NCc3ccncc3)C2)cc1Cl` (configuration not stated), which Potency is on record?
Answer: Its Potency is inconclusive: 16.4 µM [inhibitor, single point].

Question: Which “activity change, negative = inhibition” value does the source give for `COc1ccc(CCNC(=O)CC2Nc3cc(C)c(C)cc3NC2=O)cc1OC` (configuration not stated) here?
Answer: Its value is inactive: -13.1%.

Question: For `O=C(Nc1nc2c(F)cccc2s1)c1ccco1`, which Potency is on record?
Answer: Its Potency is inconclusive: 10.3 µM [activator, partial curve].

Question: Which Potency does the source give for `COc1ccc(-c2cn3cc(C)ccc3n2)cc1Br` here?
Answer: Its Potency is inconclusive: 1.46 µM [activator, full curve, poor fit].

Question: Which Potency does the source give for `CC(=O)c1ccc(Nc2ncnc3c2oc2ccccc23)cc1` here?
Answer: The Potency was inconclusive: 1.3 µM [activator, full curve].

Question: Which “activity change, negative = inhibition” value does the source give for `CCOc1ccc(C(C)=O)cc1COC(=O)CCc1cc(OC)c(OC)c(OC)c1` here?
Answer: Its value is inactive: -0.883%.

Question: With `Cc1sc(NC(=O)CCl)c(C(=O)c2ccccc2)c1C` as the compound, how does the Potency read?
Answer: The Potency was inconclusive: 29.1 µM [inhibitor, single point].

Question: With `O=C(Nc1cccc(S(=O)(=O)NCc2ccco2)c1)c1ccc(Cl)cc1` as the compound, how does the Potency read?
Answer: The Potency was inconclusive: 6.51 µM [inhibitor, partial curve, poor fit].

Question: For `O=C(O)C1C2CCC(CC2)C1C(=O)N1CCN(Cc2ccc(F)cc2)CC1` (configuration not stated), which “activity change, negative = inhibition” value is on record?
Answer: The value was inactive: -1.69%.

Question: Which Potency does the source give for `CN1C(c2ccc(F)cc2)=CS/C1=C(\C#N)c1nnc2n1-c1ccccc1SC2` here?
Answer: Its Potency is inconclusive: 29.1 µM [inhibitor, single point].
